Source: publication PMC8860612
These are yes or no findings as the source states them, for the method shown. For part of these data: Binding seen in cells or lysates may run through a third protein. Some entries that bind do so weakly or less than the wild type. For part of these data: Where a sequence is shown, tags or fusion partners need not be part of it.

The chains behind the UniProt entries cited, without tags or fusion partners.
UniProt Q06609: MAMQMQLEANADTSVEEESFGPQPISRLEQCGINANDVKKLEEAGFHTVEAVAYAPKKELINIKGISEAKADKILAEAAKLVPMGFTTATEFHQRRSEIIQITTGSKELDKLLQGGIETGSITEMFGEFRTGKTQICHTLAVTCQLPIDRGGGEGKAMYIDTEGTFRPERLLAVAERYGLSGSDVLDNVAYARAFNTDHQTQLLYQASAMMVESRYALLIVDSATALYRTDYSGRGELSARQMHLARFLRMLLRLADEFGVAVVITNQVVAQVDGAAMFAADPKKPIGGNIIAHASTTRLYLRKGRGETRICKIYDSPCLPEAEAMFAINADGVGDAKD

Assays:
[1] = biological target: endogenous RAD51 (HeLa) (human (endogenous in HeLa)) (UniProt Q06609); assay: proximity ligation; Duolink in situ PLA in fixed HeLa cells, mock or 5 Gy IR (2 h), rabbit anti-RAD51 and mouse anti-TOPORS primary antibodies
[2] = biological target: endogenous RAD51 (HeLa) (human (endogenous in HeLa)) (UniProt Q06609); assay: co-IP; endogenous proteins, HeLa whole cell lysates (RIPA buffer), cells with or without 5 Gy IR or 2 mM HU, control or TOPORS-depleted; immunoprecipitation with anti-RAD51 or anti-TOPORS antibody, immunoblot
[3] = biological target: 3xHA-RAD51-WT (HEK293T) (human) (UniProt Q06609); assay: co-IP; HEK293T cells transfected with HA-RAD51 and GFP-TOPORS (WT, T515A or T515E), treated with 5 Gy IR; immunoprecipitation and immunoblot
[4] = biological target: 6xHis-RAD51 (bacterially purified) (human) (UniProt Q06609); assay: pull-down; 6xHis-RAD51 immobilised on Ni-NTA agarose, incubated with 3 ug purified bacterial TOPORS at 4 C overnight, TEN100 buffer (20 mM Tris pH 7.4, 0.1 mM EDTA, 100 mM NaCl); western blot; both purified

binding [3] | Binder | further results
 | endogenous TOPORS (HeLa) (protein, UniProt Q9NS56 1-1045) MGSQPPLGSPLSREEGEAPPPAPASEGRRRSRRVRLRGSCRHRPSFLGCRELAASAPARPAPASSEIMASAAKEFKMDNFSPKAGTSKLQQTVPADASPDSKCPICLDRFDNVSYLDRCLHKFCFRCVQEWSKNKAECPLCKQPFDSIFHSVRAEDDFKEYVLRPSYNGSFVTPDRRFRYRTTLTRERNASVYSPSGPVNRRTTTPPDSGVLFEGLGISTRPRDVEIPQFMRQIAVRRPTTADERSLRKIQEQDIINFRRTLYRAGARVRNIEDGGRYRDISAEFFRRNPACLHRLVPWLKRELTVLFGAHGSLVNIVQHIIMSNVTRYDLESQAFVSDLRPFLLNRTEHFIHEFISFARSPFNMAAFDQHANYDCPAPSYEEGSHSDSSVITISPDEAETQELDINVATVSQAPWDDETPGPSYSSSEQVHVTMSSLLNTSDSSDEELVTGGATSQIQGVQTNDDLNNDSDDSSDNCVIVGFVKPLAERTPELVELSSDSEDLGSYEKMETVKTQEQEQSYSSGDSDVSRCSSPHSVLGKDEQINKGHCDSSTRIKSKKEEKRSTSLSSPRNLNSSVRGDRVYSPYNHRHRKRGRSRSSDSRSQSRSGHDQKNHRKHHGKKRMKSKRSRSRESSRPRGRRDKKRSRTRDSSWSRRSQTLSLSSESTSRSRSRSSDHGKRRSRSRNRDRYYLRNNYGSRYKWEYTYYSRNKDRDGYESSYRRRTLSRAHYSRQSSSPEFRVQSFSERTNARKKNNHSERKYYYYERHRSRSLSSNRSRTASTGTDRVRNEKPGGKRKYKTRHLEGTNEVAQPSREFASKAKDSHYQKSSSKLDGNYKNESDTFSDSRSSDRETKHKRRKRKTRSLSVEIVYEGKATDTTKHHKKKKKKHKKKHKKHHGDNASRSPVVITIDSDSDKDSEVKEDTECDNSGPQDPLQNEFLAPSLEPFETKDVVTIEAEFGVLDKECDIATLSNNLNNANKTVDNIPPLAASVEQTLDVREESTFVSDLENQPSNIVSLQTEPSRQLPSPRTSLMSVCLGRDCDMS | binding [1]: binds; binding [2]: binds
binds | GFP-TOPORS-T515E (HEK293T) (protein, UniProt Q9NS56 1-1045) MGSQPPLGSPLSREEGEAPPPAPASEGRRRSRRVRLRGSCRHRPSFLGCRELAASAPARPAPASSEIMASAAKEFKMDNFSPKAGTSKLQQTVPADASPDSKCPICLDRFDNVSYLDRCLHKFCFRCVQEWSKNKAECPLCKQPFDSIFHSVRAEDDFKEYVLRPSYNGSFVTPDRRFRYRTTLTRERNASVYSPSGPVNRRTTTPPDSGVLFEGLGISTRPRDVEIPQFMRQIAVRRPTTADERSLRKIQEQDIINFRRTLYRAGARVRNIEDGGRYRDISAEFFRRNPACLHRLVPWLKRELTVLFGAHGSLVNIVQHIIMSNVTRYDLESQAFVSDLRPFLLNRTEHFIHEFISFARSPFNMAAFDQHANYDCPAPSYEEGSHSDSSVITISPDEAETQELDINVATVSQAPWDDETPGPSYSSSEQVHVTMSSLLNTSDSSDEELVTGGATSQIQGVQTNDDLNNDSDDSSDNCVIVGFVKPLAERTPELVELSSDSEDLGSYEKMETVKEQEQEQSYSSGDSDVSRCSSPHSVLGKDEQINKGHCDSSTRIKSKKEEKRSTSLSSPRNLNSSVRGDRVYSPYNHRHRKRGRSRSSDSRSQSRSGHDQKNHRKHHGKKRMKSKRSRSRESSRPRGRRDKKRSRTRDSSWSRRSQTLSLSSESTSRSRSRSSDHGKRRSRSRNRDRYYLRNNYGSRYKWEYTYYSRNKDRDGYESSYRRRTLSRAHYSRQSSSPEFRVQSFSERTNARKKNNHSERKYYYYERHRSRSLSSNRSRTASTGTDRVRNEKPGGKRKYKTRHLEGTNEVAQPSREFASKAKDSHYQKSSSKLDGNYKNESDTFSDSRSSDRETKHKRRKRKTRSLSVEIVYEGKATDTTKHHKKKKKKHKKKHKKHHGDNASRSPVVITIDSDSDKDSEVKEDTECDNSGPQDPLQNEFLAPSLEPFETKDVVTIEAEFGVLDKECDIATLSNNLNNANKTVDNIPPLAASVEQTLDVREESTFVSDLENQPSNIVSLQTEPSRQLPSPRTSLMSVCLGRDCDMS | 
 | GST-TOPORS (bacterially purified) (protein, UniProt Q9NS56 1-1045) MGSQPPLGSPLSREEGEAPPPAPASEGRRRSRRVRLRGSCRHRPSFLGCRELAASAPARPAPASSEIMASAAKEFKMDNFSPKAGTSKLQQTVPADASPDSKCPICLDRFDNVSYLDRCLHKFCFRCVQEWSKNKAECPLCKQPFDSIFHSVRAEDDFKEYVLRPSYNGSFVTPDRRFRYRTTLTRERNASVYSPSGPVNRRTTTPPDSGVLFEGLGISTRPRDVEIPQFMRQIAVRRPTTADERSLRKIQEQDIINFRRTLYRAGARVRNIEDGGRYRDISAEFFRRNPACLHRLVPWLKRELTVLFGAHGSLVNIVQHIIMSNVTRYDLESQAFVSDLRPFLLNRTEHFIHEFISFARSPFNMAAFDQHANYDCPAPSYEEGSHSDSSVITISPDEAETQELDINVATVSQAPWDDETPGPSYSSSEQVHVTMSSLLNTSDSSDEELVTGGATSQIQGVQTNDDLNNDSDDSSDNCVIVGFVKPLAERTPELVELSSDSEDLGSYEKMETVKTQEQEQSYSSGDSDVSRCSSPHSVLGKDEQINKGHCDSSTRIKSKKEEKRSTSLSSPRNLNSSVRGDRVYSPYNHRHRKRGRSRSSDSRSQSRSGHDQKNHRKHHGKKRMKSKRSRSRESSRPRGRRDKKRSRTRDSSWSRRSQTLSLSSESTSRSRSRSSDHGKRRSRSRNRDRYYLRNNYGSRYKWEYTYYSRNKDRDGYESSYRRRTLSRAHYSRQSSSPEFRVQSFSERTNARKKNNHSERKYYYYERHRSRSLSSNRSRTASTGTDRVRNEKPGGKRKYKTRHLEGTNEVAQPSREFASKAKDSHYQKSSSKLDGNYKNESDTFSDSRSSDRETKHKRRKRKTRSLSVEIVYEGKATDTTKHHKKKKKKHKKKHKKHHGDNASRSPVVITIDSDSDKDSEVKEDTECDNSGPQDPLQNEFLAPSLEPFETKDVVTIEAEFGVLDKECDIATLSNNLNNANKTVDNIPPLAASVEQTLDVREESTFVSDLENQPSNIVSLQTEPSRQLPSPRTSLMSVCLGRDCDMS | binding [4]: binds
binds | GFP-TOPORS-WT (HEK293T) (protein, UniProt Q9NS56 1-1045) MGSQPPLGSPLSREEGEAPPPAPASEGRRRSRRVRLRGSCRHRPSFLGCRELAASAPARPAPASSEIMASAAKEFKMDNFSPKAGTSKLQQTVPADASPDSKCPICLDRFDNVSYLDRCLHKFCFRCVQEWSKNKAECPLCKQPFDSIFHSVRAEDDFKEYVLRPSYNGSFVTPDRRFRYRTTLTRERNASVYSPSGPVNRRTTTPPDSGVLFEGLGISTRPRDVEIPQFMRQIAVRRPTTADERSLRKIQEQDIINFRRTLYRAGARVRNIEDGGRYRDISAEFFRRNPACLHRLVPWLKRELTVLFGAHGSLVNIVQHIIMSNVTRYDLESQAFVSDLRPFLLNRTEHFIHEFISFARSPFNMAAFDQHANYDCPAPSYEEGSHSDSSVITISPDEAETQELDINVATVSQAPWDDETPGPSYSSSEQVHVTMSSLLNTSDSSDEELVTGGATSQIQGVQTNDDLNNDSDDSSDNCVIVGFVKPLAERTPELVELSSDSEDLGSYEKMETVKTQEQEQSYSSGDSDVSRCSSPHSVLGKDEQINKGHCDSSTRIKSKKEEKRSTSLSSPRNLNSSVRGDRVYSPYNHRHRKRGRSRSSDSRSQSRSGHDQKNHRKHHGKKRMKSKRSRSRESSRPRGRRDKKRSRTRDSSWSRRSQTLSLSSESTSRSRSRSSDHGKRRSRSRNRDRYYLRNNYGSRYKWEYTYYSRNKDRDGYESSYRRRTLSRAHYSRQSSSPEFRVQSFSERTNARKKNNHSERKYYYYERHRSRSLSSNRSRTASTGTDRVRNEKPGGKRKYKTRHLEGTNEVAQPSREFASKAKDSHYQKSSSKLDGNYKNESDTFSDSRSSDRETKHKRRKRKTRSLSVEIVYEGKATDTTKHHKKKKKKHKKKHKKHHGDNASRSPVVITIDSDSDKDSEVKEDTECDNSGPQDPLQNEFLAPSLEPFETKDVVTIEAEFGVLDKECDIATLSNNLNNANKTVDNIPPLAASVEQTLDVREESTFVSDLENQPSNIVSLQTEPSRQLPSPRTSLMSVCLGRDCDMS | 
binds | GFP-TOPORS-T515A (HEK293T) (protein, UniProt Q9NS56 1-1045) MGSQPPLGSPLSREEGEAPPPAPASEGRRRSRRVRLRGSCRHRPSFLGCRELAASAPARPAPASSEIMASAAKEFKMDNFSPKAGTSKLQQTVPADASPDSKCPICLDRFDNVSYLDRCLHKFCFRCVQEWSKNKAECPLCKQPFDSIFHSVRAEDDFKEYVLRPSYNGSFVTPDRRFRYRTTLTRERNASVYSPSGPVNRRTTTPPDSGVLFEGLGISTRPRDVEIPQFMRQIAVRRPTTADERSLRKIQEQDIINFRRTLYRAGARVRNIEDGGRYRDISAEFFRRNPACLHRLVPWLKRELTVLFGAHGSLVNIVQHIIMSNVTRYDLESQAFVSDLRPFLLNRTEHFIHEFISFARSPFNMAAFDQHANYDCPAPSYEEGSHSDSSVITISPDEAETQELDINVATVSQAPWDDETPGPSYSSSEQVHVTMSSLLNTSDSSDEELVTGGATSQIQGVQTNDDLNNDSDDSSDNCVIVGFVKPLAERTPELVELSSDSEDLGSYEKMETVKAQEQEQSYSSGDSDVSRCSSPHSVLGKDEQINKGHCDSSTRIKSKKEEKRSTSLSSPRNLNSSVRGDRVYSPYNHRHRKRGRSRSSDSRSQSRSGHDQKNHRKHHGKKRMKSKRSRSRESSRPRGRRDKKRSRTRDSSWSRRSQTLSLSSESTSRSRSRSSDHGKRRSRSRNRDRYYLRNNYGSRYKWEYTYYSRNKDRDGYESSYRRRTLSRAHYSRQSSSPEFRVQSFSERTNARKKNNHSERKYYYYERHRSRSLSSNRSRTASTGTDRVRNEKPGGKRKYKTRHLEGTNEVAQPSREFASKAKDSHYQKSSSKLDGNYKNESDTFSDSRSSDRETKHKRRKRKTRSLSVEIVYEGKATDTTKHHKKKKKKHKKKHKKHHGDNASRSPVVITIDSDSDKDSEVKEDTECDNSGPQDPLQNEFLAPSLEPFETKDVVTIEAEFGVLDKECDIATLSNNLNNANKTVDNIPPLAASVEQTLDVREESTFVSDLENQPSNIVSLQTEPSRQLPSPRTSLMSVCLGRDCDMS | 
